Reference: patent publication US20240294632A1
These are yes or no findings as the source states them, for the method shown. Some binding calls cover weakened binding; strength is not graded here. Blank lines part the entries; values can stand above or below the binder they belong to.

Chains of the proteins cited; added tags and fusions are not shown. Residues count along the entry.
UniProt P02769, residues 25-607: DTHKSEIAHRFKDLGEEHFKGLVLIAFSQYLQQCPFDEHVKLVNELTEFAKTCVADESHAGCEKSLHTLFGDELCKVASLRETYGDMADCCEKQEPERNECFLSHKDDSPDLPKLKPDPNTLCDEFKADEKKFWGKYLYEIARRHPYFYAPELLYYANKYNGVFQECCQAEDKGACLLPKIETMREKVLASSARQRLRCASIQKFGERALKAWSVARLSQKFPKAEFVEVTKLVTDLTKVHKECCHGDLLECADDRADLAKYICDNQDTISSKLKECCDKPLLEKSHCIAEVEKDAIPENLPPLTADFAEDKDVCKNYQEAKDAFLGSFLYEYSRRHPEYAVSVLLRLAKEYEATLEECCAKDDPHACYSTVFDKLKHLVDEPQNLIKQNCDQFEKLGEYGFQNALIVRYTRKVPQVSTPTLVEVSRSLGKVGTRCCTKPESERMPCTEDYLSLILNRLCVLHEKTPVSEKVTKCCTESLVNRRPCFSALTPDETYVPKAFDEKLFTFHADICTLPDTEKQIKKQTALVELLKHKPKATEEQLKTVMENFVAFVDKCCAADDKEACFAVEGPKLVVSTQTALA

What was measured:
PAS #1 sequence [1] = molecular target: T1, PAS #1 sequence; assay: SPOT peptide array / hybridoma screening
T1 sequence (peptide): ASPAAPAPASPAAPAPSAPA

BSA (bovine) = BSA (bovine) (UniProt P02769); assay: ELISA, Fab titrated on BSA as control
P/A #1 sequence = molecular target: T2, P/A #1 sequence; assay: SPOT peptide array / hybridoma screening
T2 sequence (peptide): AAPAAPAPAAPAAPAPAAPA

[2] = molecular target: T3, Pga-…; assay: co-crystal structure of the recombinant Fab with the peptide
T3 sequence (peptide, N-terminal pyroglutamyl residue (Pga), counted as P1 in the structures): APASPAAPA

PAS #1 sequence [3] = molecular target: T1, PAS #1 sequence; assay: ELISA and SPR with Fabs

binding (PAS #1 sequence [1]): binds
B1: Anti-PA(S) MAb 1.2 (antibody, V domains shown)
VH: QVQLVESGGGLVQPGGSLKLSCAASGFTFSSYGMSWVRQTPDKRLELVATINSNGGSTYYLDSVKGRFTISRDKAKNTLYLQMSSLKSEDTAMYYCVRGGSIYDGYDYAMDYWGQGTSVTVSS
VL: DIVLTQSPASLAVSLGQRATISCRASQSVSTSSYSYMHWFQQKPGQPPKLLIKYASNLESGVPARFSGSGSGTDFTLNIHPVEEEDTATYYCQHSWEIPLTFGAGTKLELKR

binding (P/A #1 sequence): binds | binding (PAS #1 sequence [1]): binds
B3: Anti-PA(S) MAb 2.1 (antibody, V domains shown)
VH: QVTLKESGPGILQPSQTLSLTCSFSGFSLSTYDMGVGWIRQPSGKGLEWLANIWWNDNKYYNSALKSRLTISKDTSNNQVFLKISSVDATDTATYYCAQMRDNYGVWFAFWGQGTLVTVSA
VL: DIVMSQSPSSLAVSVGEKVTMSCKSSQSLFYSNREKNYLAWYQQKPGQSPKLLIYWASTRESGVPDRFTGSGSGTDFTLTISNVKAEDLAVYYCQQYYNYPTFGAGTKLELKR

The remaining lines, values behind:

B2: Fab fragment of Anti-PA(S) MAb 2.1 (Fab, V domains shown)
VH: QVTLKESGPGILQPSQTLSLTCSFSGFSLSTYDMGVGWIRQPSGKGLEWLANIWWNDNKYYNSALKSRLTISKDTSNNQVFLKISSVDATDTATYYCAQMRDNYGVWFAFWGQGTLVTVSA
VL: DIVMSQSPSSLAVSVGEKVTMSCKSSQSLFYSNREKNYLAWYQQKPGQSPKLLIYWASTRESGVPDRFTGSGSGTDFTLTISNVKAEDLAVYYCQQYYNYPTFGAGTKLELKR
binding (BSA (bovine)): no binding (tested: 50 nM)

B4: Anti-PA(S) MAb 1.1 (antibody, V domains shown)
VH: QVQLKESGPGLVAPSQSLSITCTVSGFSLTGYGVNWVRQPPGKGLEWLGMIWGDGITDYNSALKSRLSISKDNSKSQVFLKMNSLQTDDTARYYCARDYYGRRYYAMDYWGQGTSVTVSS
VL: DIVLTQSPASLAVSLGQRATISCRASKSVSSSGYNYMFWYQQKPGQPPKLLIYLASNLESGVPDRFWGSGSGTDFTLNIHPVEEEDAATYYCQHSRELPLTFGAGTKLELKR
binding (PAS #1 sequence [1]): binds

B5: Fab fragment of Anti-PA(S) MAb 1.1 (Fab, V domains shown)
VH: QVQLKESGPGLVAPSQSLSITCTVSGFSLTGYGVNWVRQPPGKGLEWLGMIWGDGITDYNSALKSRLSISKDNSKSQVFLKMNSLQTDDTARYYCARDYYGRRYYAMDYWGQGTSVTVSS
VL: DIVLTQSPASLAVSLGQRATISCRASKSVSSSGYNYMFWYQQKPGQPPKLLIYLASNLESGVPDRFWGSGSGTDFTLNIHPVEEEDAATYYCQHSRELPLTFGAGTKLELKR
binding [2]: binds | binding (PAS #1 sequence [3]): binds
